One experiment has as its target PAX3HaFlag (UniProt P24610). Nature of the experiment: co-IP; FLAG-IP of PAX3HaFlag from nuclear extracts of 1-day induced EBs, western blot of the partners. A general note: Immunoblotting shows a protein as a band on a membrane.
The target in experiment [1] is T1, LIM-domain binding protein 1 (LDB1) (mouse (endogenous in mouse ES cell-derived EBs)) (UniProt P70662).
T1 sequence: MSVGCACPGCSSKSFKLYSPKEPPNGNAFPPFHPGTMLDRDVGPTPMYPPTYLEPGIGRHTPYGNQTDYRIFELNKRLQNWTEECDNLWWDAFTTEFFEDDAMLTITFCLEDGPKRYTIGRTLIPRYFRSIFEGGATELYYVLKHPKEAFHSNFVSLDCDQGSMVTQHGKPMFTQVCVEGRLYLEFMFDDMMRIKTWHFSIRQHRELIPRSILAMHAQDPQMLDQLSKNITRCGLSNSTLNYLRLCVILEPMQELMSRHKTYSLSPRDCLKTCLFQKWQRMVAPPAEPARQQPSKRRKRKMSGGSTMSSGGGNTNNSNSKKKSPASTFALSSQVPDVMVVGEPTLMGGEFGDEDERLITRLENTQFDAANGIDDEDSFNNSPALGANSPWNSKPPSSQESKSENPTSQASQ
In words: co-IP; immunoprecipitation with rabbit anti-LDB1 antibody and Protein A sepharose beads from nuclear extracts of iPax3 and iPax7 lines, western blot.

Amino acid sequences for entries named in this document (tags omitted).
UniProt P24610: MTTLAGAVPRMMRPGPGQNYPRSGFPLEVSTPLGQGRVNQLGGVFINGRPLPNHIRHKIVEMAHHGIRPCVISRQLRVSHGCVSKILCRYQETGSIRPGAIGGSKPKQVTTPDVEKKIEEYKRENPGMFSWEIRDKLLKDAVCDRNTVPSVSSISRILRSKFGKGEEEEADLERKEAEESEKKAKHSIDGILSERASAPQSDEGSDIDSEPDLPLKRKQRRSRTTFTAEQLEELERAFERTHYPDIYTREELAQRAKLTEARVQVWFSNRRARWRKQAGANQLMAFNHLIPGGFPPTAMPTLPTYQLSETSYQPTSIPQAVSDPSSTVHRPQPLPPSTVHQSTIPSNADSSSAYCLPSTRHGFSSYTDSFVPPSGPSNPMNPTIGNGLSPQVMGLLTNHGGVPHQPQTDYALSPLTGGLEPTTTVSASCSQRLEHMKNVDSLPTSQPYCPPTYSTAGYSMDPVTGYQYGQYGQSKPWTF
UniProt Q91X20: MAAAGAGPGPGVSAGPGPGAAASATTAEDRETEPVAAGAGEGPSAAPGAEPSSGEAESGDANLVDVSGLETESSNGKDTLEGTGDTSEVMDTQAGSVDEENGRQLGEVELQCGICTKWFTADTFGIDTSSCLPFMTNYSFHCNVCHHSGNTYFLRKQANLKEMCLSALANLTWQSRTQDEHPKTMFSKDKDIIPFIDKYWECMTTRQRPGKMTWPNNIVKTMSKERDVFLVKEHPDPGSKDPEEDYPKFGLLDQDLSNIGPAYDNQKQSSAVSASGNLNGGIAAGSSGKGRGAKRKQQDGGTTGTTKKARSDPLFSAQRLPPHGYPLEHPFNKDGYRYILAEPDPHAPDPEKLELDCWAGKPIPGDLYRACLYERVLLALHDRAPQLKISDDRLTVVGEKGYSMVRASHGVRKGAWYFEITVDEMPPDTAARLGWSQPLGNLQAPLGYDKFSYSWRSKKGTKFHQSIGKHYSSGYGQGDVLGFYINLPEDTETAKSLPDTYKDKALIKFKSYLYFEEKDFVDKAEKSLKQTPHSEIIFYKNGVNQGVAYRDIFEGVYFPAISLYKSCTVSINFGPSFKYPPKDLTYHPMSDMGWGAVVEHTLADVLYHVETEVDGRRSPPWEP
UniProt P47239: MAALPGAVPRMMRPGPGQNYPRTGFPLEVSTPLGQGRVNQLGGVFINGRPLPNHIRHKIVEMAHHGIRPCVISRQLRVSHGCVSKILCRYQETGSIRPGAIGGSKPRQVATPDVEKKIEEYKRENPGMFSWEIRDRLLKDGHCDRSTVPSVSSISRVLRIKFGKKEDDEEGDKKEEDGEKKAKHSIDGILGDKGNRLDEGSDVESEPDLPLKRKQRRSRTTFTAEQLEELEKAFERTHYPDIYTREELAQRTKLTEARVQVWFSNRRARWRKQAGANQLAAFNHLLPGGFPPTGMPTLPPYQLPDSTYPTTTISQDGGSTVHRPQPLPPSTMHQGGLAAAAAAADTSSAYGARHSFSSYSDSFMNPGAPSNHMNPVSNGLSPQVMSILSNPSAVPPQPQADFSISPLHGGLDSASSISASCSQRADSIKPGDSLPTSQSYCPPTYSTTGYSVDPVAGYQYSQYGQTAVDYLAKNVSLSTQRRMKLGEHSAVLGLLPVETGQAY

No constants are given. Whether binding was seen depends on the method and setting. In cells and extracts the contact can be indirect. Some entries that bind do so weakly or less than the wild type.

On to ASH2L (from UniProt Q91X20 1-623), for which the binding result (in the experiment with PAX3HaFlag; in experiment [1]) was “binds” each time.

As to PAX3 (from UniProt P24610 1-479), the binding result in experiment [1] is recorded as “binds”.

PAX7 (from UniProt P47239 1-503): the binding result in experiment [1] is “binds”.

B1: LIM-domain binding protein 1 (LDB1) (protein, UniProt P70662 1-411)
chain: T1 sequence
B1: the binding result with PAX3HaFlag is on record as “binds”.

The values above are taken from publication PMC6534668.
